No constants are given. Whether binding was seen depends on the method and setting. Binding seen in cells or lysates may run through a third protein. Some results given as binding are weak or reduced against the parent protein; the word gives no strength. Where a sequence is shown, tags or fusion partners need not be part of it.
Target: Flag-tagged ATG5 (human) (UniProt Q9H1Y0)
Assay: co-IP; HEK293T; HA-SDE2 variants (full-length and truncations) with Flag-tagged ATG5

Amino acid sequences for entries named in this document (tags omitted).
UniProt Q9H1Y0: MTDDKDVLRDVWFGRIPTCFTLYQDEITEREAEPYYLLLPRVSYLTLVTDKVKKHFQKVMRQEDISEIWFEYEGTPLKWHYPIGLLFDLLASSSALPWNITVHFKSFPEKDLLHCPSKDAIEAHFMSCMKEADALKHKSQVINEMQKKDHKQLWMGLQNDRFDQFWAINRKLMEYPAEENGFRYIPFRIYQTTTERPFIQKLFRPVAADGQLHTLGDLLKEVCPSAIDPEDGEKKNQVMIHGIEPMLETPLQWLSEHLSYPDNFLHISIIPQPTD

binding	Binder
binds	HA-SDE2 N-terminal fragment (1–300 aa) (domain or fragment, UniProt Q6IQ49-1 1-300) MAEAAALVWIRGPGFGCKAVRCASGRCTVRDFIHRHCQDQNVPVENFFVKCNGALINTSDTVQHGAVYSLEPRLCGGKGGFGSMLRALGAQIEKTTNREACRDLSGRRLRDVNHEKAMAEWVKQQAEREAEKEQKRLERLQRKLVEPKHCFTSPDYQQQCHEMAERLEDSVLKGMQAASSKMVSAEISENRKRQWPTKSQTDRGASAGKRRCFWLGMEGLETAEGSNSESSDDDSEEAPSTSGMGFHAPKIGSNGVEMAAKFPSGSQRARVVNTDHGSPEQLQIPVTDSGRHILEDSCAE
no binding	HA-SDE2 C-terminal fragment (281–450 aa) (domain or fragment, UniProt Q6IQ49-1 281-450) QLQIPVTDSGRHILEDSCAELGESKEHMESRMVTETEETQEKKAESKEPIEEEPTGAGLNKDKETEERTDGERVAEVAPEERENVAVAKLQESQPGNAVIDKETIDLLAFTSVAELELLGLEKLKCELMALGLKCGGTLQERAARLFSVRGLAKEQIDPALFAKPLKGKK
